Data on 46 molecules can be found in the supplement of paper PMC9744312.

The term cell viability denotes a read-out of living cells in per cent, often relative to untreated cells.

Molecules are shown by their SMILES. Counter-ions that a name gives are not always drawn. This is one part of the list. Single values of this set are uncertain.

In this experiment the test system is Peyronie's disease tunica albuginea primary fibroblasts. Put plainly: cell viability (DRAQ5 nuclear stain) relative to TGF-beta1-only control; higher = more viable cells. Particulars: 10 µM; TGF-beta1 10 ng/mL; 72 h.
Consider `CCCCCCCCCCCCCCCCCC(=O)O` [Stearic acid], for which the cell viability turned out to be 115%.

`CO[C@@]1(NC(=O)C(C(=O)O)c2ccc(O)cc2)C(=O)N2C(C(=O)O)=C(CSc3nnnn3C)CO[C@@H]21` (stereo partly specified) [Latamoxef sodium]: the cell viability was determined as 52.9%.

For `C=CCc1cc(OC)c(O)c(C(=O)NCCO)c1` [Alibendol], the cell viability is 80.8%.

On to `C#C[C@]1(O)CC[C@H]2[C@@H]3CCC4=CC(=O)CC[C@@H]4[C@H]3CC[C@@]21C` [Norethindrone], for which the cell viability was found to be 94.6%.

With `C#C[C@]1(OC(C)=O)CC[C@H]2[C@@H]3CCC4=C[C@@H](OC(C)=O)CC[C@@H]4[C@H]3CC[C@@]21C` [Ethynodiol diacetate], the cell viability came to 103%.

In the case of `Nc1ccc(S(=O)(=O)Nc2ncccn2)cc1` [Sodium sulfadiazine], the cell viability was 82.6%.

Consider `Nc1ccc(S(=O)(=O)Nc2ncccn2)cc1` [Sulfadiazine], for which the cell viability was 92%.

On to `Nc1ccc(O)c(C(=O)O)c1` [Mesalamine], for which the cell viability amounted to 92%.

In the case of `CN(C)CCCN1c2ccccc2CCc2ccc(Cl)cc21` [Clomipramine HCl], the cell viability stood at 80.3%.

Take `Cc1cc(NC(=O)C2=C(O)c3ccccc3S(=O)(=O)N2C)no1` [Isoxicam]: the cell viability was 88.3%.

As to `CCCCCCCC(=O)N[C@H](CN1CCCC1)[C@H](O)c1ccc2c(c1)OCCO2` [Eliglustat], the cell viability came out at 84.9%.

Turning to `CC(C)NC[C@H](O)COc1ccc(CCOCC2CC2)cc1` [Levobetaxolol HCl], the cell viability came to 97.5%.

`C1=N/C2=N/c3ccc(OCCN4CCCC4)c(c3)COC/C=C/COCc3cccc(c3)C(=C1)N2` [Pacritinib (SB1518)]: the cell viability is 40.7%.

On to `COc1ccc2cccc(CCNC(C)=O)c2c1` [Agomelatine], for which the cell viability worked out at 89.9%.

As to `CC(C)NCC(O)c1ccc(NS(C)(=O)=O)cc1` (stereo unspecified) [Sotalol HCl], the cell viability was 87.7%.

`C#C[C@]1(O)CC[C@H]2[C@@H]3CCc4cc(OC)ccc4[C@H]3CC[C@@]21C` [Mestranol]: the cell viability was found to be 89.2%.

Regarding `N=C(N)NCCC[C@@H](NC(=O)[C@@H]1CCCN1C(=O)[C@@H]1CSSCCC(=O)N[C@@H](Cc2ccc(O)cc2)C(=O)N[C@@H](Cc2ccccc2)C(=O)N[C@@H](CCC(N)=O)C(=O)N[C@@H](CC(N)=O)C(=O)N1)C(=O)NCC(N)=O` [Desmopressin Acetate], the cell viability is 99.2%.

As to `CC(=O)N1CCN(c2ccc(OCC3COC(Cn4ccnc4)(c4ccc(Cl)cc4Cl)O3)cc2)CC1` (stereo unspecified) [Ketoconazole], the cell viability stood at 96.2%.

With `Cc1[nH]c(/C=C2\C(=O)Nc3ccccc32)c(C)c1CCC(=O)O` [Orantinib (TSU-68, SU6668)], the cell viability was determined as 81.9%.

On to `Cc1nc(C)c(Cl)c(O)c1Cl` [Clopidol], for which the cell viability was found to be 93.3%.

Consider `O=C(O)P(=O)(O)O` [Foscarnet Sodium], for which the cell viability worked out at 83.4%.

In the case of `NS(=O)(=O)c1ccc(C(=O)O)cc1` [Carzenide], the cell viability was found to be 79.4%.

On to `CO[C@H]1C[C@@H]2CC[C@@H](C)[C@@](O)(O2)C(=O)C(=O)N2CCCC[C@H]2C(=O)O[C@H]([C@H](C)C[C@@H]2CC[C@@H](O)[C@H](OC)C2)CC(=O)[C@H](C)/C=C(\C)[C@@H](O)[C@@H](OC)C(=O)[C@H](C)C[C@H](C)/C=C/C=C/C=C/1C` [Rapamycin (Sirolimus)], for which the cell viability amounted to 74.5%.

In the case of `CCC(=O)NS(=O)(=O)c1ccc(-c2c(-c3ccccc3)noc2C)cc1` [Parecoxib], the cell viability is 87.5%.

With `CCC(=O)NS(=O)(=O)c1ccc(-c2c(-c3ccccc3)noc2C)cc1` [Parecoxib Sodium], the cell viability was 110%.

As for `CNC[C@H](O)c1cccc(O)c1` [Phenylephrine HCl], the cell viability turned out to be 96.4%.

As for `N[C@@H]1CN(c2c(F)cc3c(=O)c(C(=O)O)cn([C@@H]4C[C@@H]4F)c3c2Cl)CC12CC2` [Sitafloxacin Hydrate], the cell viability was determined as 91.8%.

For `COC(=O)c1ccc2c(c1)NC(=O)/C2=C(\Nc1ccc(N(C)C(=O)CN2CCN(C)CC2)cc1)c1ccccc1` [Nintedanib (BIBF 1120)], the cell viability was found to be 76.9%.

Turning to `CC(C)(CO)[C@@H](O)C(=O)NCCCO` [D panthenol], the cell viability came out at 96%.

For the molecule `CC(C)C[C@H](NC(=O)CNC(=O)c1cc(Cl)ccc1Cl)B(O)O` [Ixazomib (MLN2238)], the cell viability came out at 34.1%.

On to `COC(=O)[C@H]1[C@H]2C[C@@H]3c4[nH]c5cc(OC)ccc5c4CCN3C[C@H]2C[C@@H](OC(=O)c2cc(OC)c(OC)c(OC)c2)[C@@H]1OC` [Reserpine], for which the cell viability came out at 84.3%.

For `O=c1c(-c2ccc(O)cc2)coc2cc(O)cc(O)c12` [Genistein], the cell viability was 80.1%.

In the case of `N[C@H](Cc1ccccc1)C(=O)O` [D-Phenylalanine], the cell viability was determined as 110%.

`CS(=O)(=O)Nc1cc2occ(NC=O)c(=O)c2cc1Oc1ccccc1` [Iguratimod]: the cell viability came to 103%.

For `CC(C)OC(=O)C(C(=O)OC(C)C)=C1SC=CS1` [Malotilate], the cell viability turned out to be 90.6%.

Take `c1ccc2c(c1)CCCC2C1=NCCN1` (stereo unspecified) [Tetrahydrozoline HCl]: the cell viability is 90.6%.

Consider `COc1cccc(CCc2ccccc2OCC(CN(C)C)OC(=O)CCC(=O)O)c1` (stereo unspecified) [Sarpogrelate hydrochloride], for which the cell viability worked out at 79.4%.

As to `C[C@@H](O)[C@H]1C(=O)N2C(C(=O)O)=C(SCCNC=N)C[C@H]12` [Imipenem], the cell viability was 81.9%.

With `N[C@@H](CS)C(=O)O` [L-Cysteine HCl], the cell viability was found to be 81.3%.

Take `CCCCCN(C)CCC(O)(P(=O)(O)O)P(=O)(O)O` [Ibandronate sodium]: the cell viability worked out at 87.2%.

As for `C[Se]CC[C@H](N)C(=O)O` [L-SelenoMethionine], the cell viability is 88.5%.

In the case of `C1N2CN3CN1CN(C2)C3` [Methenamine], the cell viability was 95.3%.

In the case of `CCCOC(C(=O)OC1CCN(C)CC1)(c1ccccc1)c1ccccc1` [Propiverine hydrochloride], the cell viability was determined as 94.6%.

For the molecule `CCOCCn1c(C2CCN(CCc3ccc(C(C)(C)C(=O)O)cc3)CC2)nc2ccccc21` [Bilastine], the cell viability came to 94.2%.

Turning to `C[C@@H](O)[C@H]1C(=O)N2C(C(=O)O)=C(S[C@@H]3CN[C@H](C(=O)Nc4cccc(C(=O)O)c4)C3)[C@H](C)[C@H]12` [Ertapenem sodium], the cell viability is 95.1%.

Regarding `CCCCCOc1ccc(-c2ccc(-c3ccc(C(=O)N[C@H]4C[C@@H](O)[C@@H](O)NC(=O)[C@@H]5[C@@H](O)[C@@H](C)CN5C(=O)[C@H]([C@@H](C)O)NC(=O)[C@H]([C@H](O)[C@@H](O)c5ccc(O)cc5)NC(=O)[C@@H]5C[C@@H](O)CN5C(=O)[C@H]([C@@H](C)O)NC4=O)cc3)cc2)cc1`, the cell viability amounted to 64.9%.
